The target in this assay is APC (human (endogenous in SW116)) (UniProt P25054). Put plainly: co-IP; total lysate of SW116 cells (50 mM Tris-HCl pH 7.5, 150 mM NaCl, 1 mM EDTA, 0.3% Triton X-100, PMSF); 1 ug anti-APC or anti-KRT17 antibody overnight at 4°C, protein A agarose beads, eight washes, Western blotting. A general note: A western blot detects proteins with antibodies after separation by electrophoresis.

Protein sequences, listed by entry. Tags and fused reporters are not part of them.
UniProt P25054: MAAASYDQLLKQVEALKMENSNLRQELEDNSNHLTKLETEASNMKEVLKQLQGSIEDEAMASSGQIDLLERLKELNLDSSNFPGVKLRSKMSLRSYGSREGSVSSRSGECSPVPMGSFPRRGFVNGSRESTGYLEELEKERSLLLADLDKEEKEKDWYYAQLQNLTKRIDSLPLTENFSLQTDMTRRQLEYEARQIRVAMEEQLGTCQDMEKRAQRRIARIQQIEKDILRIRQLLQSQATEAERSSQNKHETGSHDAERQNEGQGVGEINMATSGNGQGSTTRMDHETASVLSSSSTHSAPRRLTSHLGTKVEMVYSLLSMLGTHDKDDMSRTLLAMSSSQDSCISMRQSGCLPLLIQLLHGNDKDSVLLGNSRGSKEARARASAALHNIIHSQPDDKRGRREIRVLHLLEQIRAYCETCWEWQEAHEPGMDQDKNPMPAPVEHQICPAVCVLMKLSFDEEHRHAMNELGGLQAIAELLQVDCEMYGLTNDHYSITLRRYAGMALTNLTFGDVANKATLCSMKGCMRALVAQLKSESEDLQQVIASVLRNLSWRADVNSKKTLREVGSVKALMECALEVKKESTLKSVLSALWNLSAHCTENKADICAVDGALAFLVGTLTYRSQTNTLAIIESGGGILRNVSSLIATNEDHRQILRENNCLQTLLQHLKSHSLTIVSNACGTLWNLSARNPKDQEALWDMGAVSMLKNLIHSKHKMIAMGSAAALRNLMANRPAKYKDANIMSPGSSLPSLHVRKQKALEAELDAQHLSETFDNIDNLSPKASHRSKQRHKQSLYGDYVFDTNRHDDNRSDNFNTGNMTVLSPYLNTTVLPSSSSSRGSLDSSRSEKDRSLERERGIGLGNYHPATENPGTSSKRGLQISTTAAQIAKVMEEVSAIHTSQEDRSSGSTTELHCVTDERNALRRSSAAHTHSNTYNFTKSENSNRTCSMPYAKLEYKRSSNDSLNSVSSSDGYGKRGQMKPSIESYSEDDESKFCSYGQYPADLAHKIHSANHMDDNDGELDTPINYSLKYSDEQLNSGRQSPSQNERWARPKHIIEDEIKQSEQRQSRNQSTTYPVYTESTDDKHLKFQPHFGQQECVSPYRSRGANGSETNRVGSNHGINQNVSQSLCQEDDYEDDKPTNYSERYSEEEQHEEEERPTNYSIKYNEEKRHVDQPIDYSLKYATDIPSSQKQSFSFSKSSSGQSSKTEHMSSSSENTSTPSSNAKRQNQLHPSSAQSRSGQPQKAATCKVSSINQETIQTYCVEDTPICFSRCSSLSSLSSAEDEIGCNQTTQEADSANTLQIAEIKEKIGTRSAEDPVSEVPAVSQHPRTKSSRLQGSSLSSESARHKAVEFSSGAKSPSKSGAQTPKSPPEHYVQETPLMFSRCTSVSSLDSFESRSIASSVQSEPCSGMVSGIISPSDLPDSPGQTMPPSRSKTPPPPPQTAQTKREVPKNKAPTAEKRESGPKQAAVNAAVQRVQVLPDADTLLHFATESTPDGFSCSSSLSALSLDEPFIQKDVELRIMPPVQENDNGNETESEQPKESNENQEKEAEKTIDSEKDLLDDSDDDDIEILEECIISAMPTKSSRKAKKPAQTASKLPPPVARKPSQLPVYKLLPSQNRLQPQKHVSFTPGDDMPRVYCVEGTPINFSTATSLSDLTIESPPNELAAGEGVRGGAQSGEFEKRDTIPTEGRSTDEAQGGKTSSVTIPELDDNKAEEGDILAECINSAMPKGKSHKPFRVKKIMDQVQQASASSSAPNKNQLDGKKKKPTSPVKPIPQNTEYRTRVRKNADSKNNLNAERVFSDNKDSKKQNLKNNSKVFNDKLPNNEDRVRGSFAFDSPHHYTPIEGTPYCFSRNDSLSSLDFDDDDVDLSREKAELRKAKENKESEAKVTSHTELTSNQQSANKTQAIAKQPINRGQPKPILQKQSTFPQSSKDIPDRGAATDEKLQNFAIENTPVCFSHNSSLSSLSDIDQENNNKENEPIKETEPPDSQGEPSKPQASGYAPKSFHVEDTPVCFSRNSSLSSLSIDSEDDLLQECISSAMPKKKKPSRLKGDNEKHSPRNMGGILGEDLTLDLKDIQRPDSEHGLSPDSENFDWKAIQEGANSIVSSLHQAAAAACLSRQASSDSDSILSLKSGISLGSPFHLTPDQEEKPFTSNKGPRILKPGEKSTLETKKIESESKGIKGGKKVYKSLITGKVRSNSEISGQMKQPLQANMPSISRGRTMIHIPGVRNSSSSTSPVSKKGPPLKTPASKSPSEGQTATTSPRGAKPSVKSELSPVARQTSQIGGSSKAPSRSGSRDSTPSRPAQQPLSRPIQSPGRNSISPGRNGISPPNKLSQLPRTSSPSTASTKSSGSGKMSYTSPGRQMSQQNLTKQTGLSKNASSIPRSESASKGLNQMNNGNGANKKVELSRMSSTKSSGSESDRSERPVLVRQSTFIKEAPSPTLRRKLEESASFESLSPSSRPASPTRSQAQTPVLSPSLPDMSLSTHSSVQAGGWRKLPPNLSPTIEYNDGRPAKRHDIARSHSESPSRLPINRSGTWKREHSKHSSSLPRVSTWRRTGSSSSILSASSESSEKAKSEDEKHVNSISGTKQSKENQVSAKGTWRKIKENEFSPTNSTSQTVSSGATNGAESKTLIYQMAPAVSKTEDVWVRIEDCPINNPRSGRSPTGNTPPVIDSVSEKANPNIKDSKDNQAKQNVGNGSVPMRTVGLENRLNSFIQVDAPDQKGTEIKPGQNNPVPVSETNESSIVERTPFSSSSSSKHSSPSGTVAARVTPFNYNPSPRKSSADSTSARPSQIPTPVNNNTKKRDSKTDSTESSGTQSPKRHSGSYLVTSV
UniProt Q04695: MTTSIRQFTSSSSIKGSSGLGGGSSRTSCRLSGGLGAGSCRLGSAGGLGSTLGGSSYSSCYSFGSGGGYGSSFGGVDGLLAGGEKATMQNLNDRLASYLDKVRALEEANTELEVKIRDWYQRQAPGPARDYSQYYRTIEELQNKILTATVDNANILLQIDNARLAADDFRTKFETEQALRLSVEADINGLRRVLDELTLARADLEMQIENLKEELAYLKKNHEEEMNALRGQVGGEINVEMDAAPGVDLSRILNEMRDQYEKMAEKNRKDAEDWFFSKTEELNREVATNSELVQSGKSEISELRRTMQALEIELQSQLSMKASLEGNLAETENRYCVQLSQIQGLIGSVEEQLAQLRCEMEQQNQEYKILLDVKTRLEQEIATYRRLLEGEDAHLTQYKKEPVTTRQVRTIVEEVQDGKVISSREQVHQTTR

Here are results for one substance from paper PMC8809968.

These are yes or no findings as the source states them, for the method shown. Binding seen in cells or lysates may run through a third protein. Some binding calls cover weakened binding; strength is not graded here.

As for Keratin 17 (from UniProt Q04695 1-432), the binding entry is listed as “binds”.
